The results in this text go back to the supplement of paper PMC11348887.

Where a name gives a salt, the structure may show the parent alone. This is one part of the list. Most values lie at the level of the controls, where differences are scatter.

Conditions in all cases: 5 µM; treatment: days 7-14 after plating, readout day 21
Experiment [1] concerns hPSC-derived cortical neurons (WA09). Briefly: nucleus area z-score vs screen plate; higher = larger nuclei (more mature).
Experiment [2] has the same test system. Briefly: total neurite length per nucleus (MAP2) z-score; higher = more neurite growth.
Experiment [3] shares this test system. Briefly: nucleus roundness z-score vs screen plate; higher = rounder nuclei (more mature).
Experiment [4] shares this test system. The experiment in a line: KCl-induced FOS+/EGR-1+ double-positive nuclei fraction z-score (KCl minus unstimulated); higher = stronger activity-induced IEG response.

As for `C[C@]1(Cn2ccnn2)[C@H](C(=O)O)N2C(=O)C[C@H]2S1(=O)=O` [Tazobactam], the nucleus area z-score in experiment [1] was -0.0156. Further, the “total neurite length per nucleus (z-score)” value in experiment [2] is -0.277. In addition, in experiment [3], the nucleus roundness z-score is -1.11. Moreover, the “KCl-induced FOS+/EGR-1+ double-positive nuclei fraction z-score” value in experiment [4] was -0.252.

On to `CNc1nc(Nc2cnn([C@H]3CCN(C4COC4)C[C@@H]3F)c2Cl)ncc1C(F)(F)F`, for which the nucleus area z-score in experiment [1] came to 0.313. In experiment [2], the “total neurite length per nucleus (z-score)” value was determined as 0.11. For the same compound, the nucleus roundness z-score in experiment [3] worked out at 0.158. The “KCl-induced FOS+/EGR-1+ double-positive nuclei fraction z-score” value in experiment [4] is 0.165.

In turn, `Cn1cc(C2=C(c3cn(CCCSC(=N)N)c4ccccc34)C(=O)NC2=O)c2ccccc21` [Ro 31-8220 Mesylate] yielded a nucleus area z-score in experiment [1] of -15.1. In experiment [2], the “total neurite length per nucleus (z-score)” value was -6. The compound further showed a nucleus roundness z-score in experiment [3] of -9.36. Also, the “KCl-induced FOS+/EGR-1+ double-positive nuclei fraction z-score” value in experiment [4] was found to be 3.46.

Take `CC(C)[N+]1(C)[C@@H]2CC[C@H]1C[C@@H](OC(=O)C(CO)c1ccccc1)C2` (stereo partly drawn) [Ipratropium Bromide]: the nucleus area z-score in experiment [1] came to 1.12. In addition, in experiment [2], the “total neurite length per nucleus (z-score)” value is -0.772. The same compound came in with a nucleus roundness z-score in experiment [3] of -0.6. In addition, the “KCl-induced FOS+/EGR-1+ double-positive nuclei fraction z-score” value in experiment [4] was -0.303.

As for `COc1ccc(CCNCc2ccc(OCc3ccc(Cl)nc3)c(OC)c2)cc1OC`, the nucleus area z-score in experiment [1] is -0.811. For the same compound, in experiment [2], the “total neurite length per nucleus (z-score)” value is -0.449. The nucleus roundness z-score in experiment [3] was -0.221. In addition, the “KCl-induced FOS+/EGR-1+ double-positive nuclei fraction z-score” value in experiment [4] was -0.503.

For the compound `CCOC(=O)Nc1cc(-c2ccc(C)c(NS(C)(=O)=O)c2)nn2c(C)nnc12` [Bromosporine], in experiment [1], the nucleus area z-score is -3.49. Moreover, the “total neurite length per nucleus (z-score)” value in experiment [2] was -1.85. Besides, the nucleus roundness z-score in experiment [3] is -2.69. The “KCl-induced FOS+/EGR-1+ double-positive nuclei fraction z-score” value in experiment [4] was -0.0191.

For `CCCCCCCCc1ccc(CCC(N)(CO)CO)cc1` [Fingolimod (FTY720) HCl], the nucleus area z-score in experiment [1] was -13.1. The “total neurite length per nucleus (z-score)” value in experiment [2] was -3.9. Further, the nucleus roundness z-score in experiment [3] is -11.7. For the same compound, the “KCl-induced FOS+/EGR-1+ double-positive nuclei fraction z-score” value in experiment [4] was -0.236.

`CN1CCC(NC(=O)c2cc(-c3c(O)cc(O)cc3Oc3ccc([N+](=O)[O-])cc3)on2)CC1` showed a nucleus area z-score in experiment [1] of -8.36. In experiment [2], the “total neurite length per nucleus (z-score)” value was -3.7. Besides, the nucleus roundness z-score in experiment [3] was -4.52. Also, in experiment [4], the “KCl-induced FOS+/EGR-1+ double-positive nuclei fraction z-score” value was -0.747.

With `COc1ccc2cc(CCC(C)=O)ccc2c1` [Nabumetone], the nucleus area z-score in experiment [1] was determined as 0.539. The “total neurite length per nucleus (z-score)” value in experiment [2] was -0.00953. This compound showed a nucleus roundness z-score in experiment [3] of 0.734. Moreover, in experiment [4], the “KCl-induced FOS+/EGR-1+ double-positive nuclei fraction z-score” value worked out at 1.21.

In turn, `Nc1nc(F)nc2c1ncn2[C@@H]1O[C@H](COP(=O)(O)O)[C@@H](O)[C@@H]1O` [Fludarabine Phosphate] had a nucleus area z-score in experiment [1] of 0.6. Also, the “total neurite length per nucleus (z-score)” value in experiment [2] worked out at 6.61. The same compound gave a nucleus roundness z-score in experiment [3] of 1.33. In experiment [4], the “KCl-induced FOS+/EGR-1+ double-positive nuclei fraction z-score” value was determined as 5.76.

The compound `Cc1c(C(=O)Nc2ccc(N3C[C@@H](C)O[C@@H](C)C3)nc2)cccc1-c1ccc(OC(F)(F)F)cc1` [LDE225 (NVP-LDE225_Erismodegib)] displayed a nucleus area z-score in experiment [1] of 2.24. Moreover, in experiment [2], the “total neurite length per nucleus (z-score)” value is -0.387. Moreover, the nucleus roundness z-score in experiment [3] is -0.593. The “KCl-induced FOS+/EGR-1+ double-positive nuclei fraction z-score” value in experiment [4] came to 0.679.

`O=c1cc(-c2ccc(O)c(O)c2)oc2cc(O)cc(O)c12` [Luteolin] displayed a nucleus area z-score in experiment [1] of -0.807. Further, the “total neurite length per nucleus (z-score)” value in experiment [2] amounted to 1.11. In addition, in experiment [3], the nucleus roundness z-score came to 0.396. In experiment [4], the “KCl-induced FOS+/EGR-1+ double-positive nuclei fraction z-score” value amounted to 2.28.

As for `NCC[C@H](O)C(=O)N[C@@H]1C[C@H](N)[C@@H](O[C@H]2O[C@H](CN)[C@@H](O)[C@H](O)[C@H]2O)[C@H](O)[C@H]1O[C@H]1O[C@H](CO)[C@@H](O)[C@H](N)[C@H]1O` [Amikacin hydrate], the nucleus area z-score in experiment [1] is -1.22. Further, in experiment [2], the “total neurite length per nucleus (z-score)” value is -0.255. Further, the nucleus roundness z-score in experiment [3] was -1.14. Also, the “KCl-induced FOS+/EGR-1+ double-positive nuclei fraction z-score” value in experiment [4] was -0.981.

Compound `CCCS(=O)(=O)Nc1ccc(F)c(C(=O)c2c[nH]c3ncc(Cl)cc23)c1F` returned a nucleus area z-score in experiment [1] of 1.04. Moreover, the “total neurite length per nucleus (z-score)” value in experiment [2] is 1.49. Also, the nucleus roundness z-score in experiment [3] was determined as 0.978. Moreover, in experiment [4], the “KCl-induced FOS+/EGR-1+ double-positive nuclei fraction z-score” value was 1.89.

Compound `COc1cc2c(cc1OC)[C@@H]1Cc3ccc(OC)c(OC)c3CN1CC2` [Rotundine] had a nucleus area z-score in experiment [1] of 4.71. Also, the “total neurite length per nucleus (z-score)” value in experiment [2] was -3.07. Further, in experiment [3], the nucleus roundness z-score is -3.43. The “KCl-induced FOS+/EGR-1+ double-positive nuclei fraction z-score” value in experiment [4] was -0.126.

`CN1CCC[C@H]1c1cccnc1` [Nicotine Ditartrate] showed a nucleus area z-score in experiment [1] of -0.54. For the same compound, the “total neurite length per nucleus (z-score)” value in experiment [2] stood at 0.54. This compound came in with a nucleus roundness z-score in experiment [3] of 1.28. Besides, in experiment [4], the “KCl-induced FOS+/EGR-1+ double-positive nuclei fraction z-score” value was found to be 1.35.

In turn, `CC1Cc2ccccc2N1NC(=O)c1ccc(Cl)c(S(N)(=O)=O)c1` (stereo not drawn) [Indapamide] showed a nucleus area z-score in experiment [1] of -0.62. Moreover, the “total neurite length per nucleus (z-score)” value in experiment [2] is 0.576. The nucleus roundness z-score in experiment [3] was determined as 0.22. Further, the “KCl-induced FOS+/EGR-1+ double-positive nuclei fraction z-score” value in experiment [4] worked out at 0.281.

In experiment [1], `CCOC(=O)OC(C)OC1=C(C(=O)Nc2ccccn2)N(C)S(=O)(=O)c2ccccc21` (stereo not drawn) [Ampiroxicam] returned a nucleus area z-score of 0.965. For the same compound, the “total neurite length per nucleus (z-score)” value in experiment [2] is 0.0656. The nucleus roundness z-score in experiment [3] is -0.52. For the same compound, the “KCl-induced FOS+/EGR-1+ double-positive nuclei fraction z-score” value in experiment [4] is -0.248.

As to `Cn1ccnc1S` [Methimazole], the nucleus area z-score in experiment [1] amounted to 0.677. Moreover, the “total neurite length per nucleus (z-score)” value in experiment [2] is 0.0518. This compound also had a nucleus roundness z-score in experiment [3] of -0.141. For the same compound, in experiment [4], the “KCl-induced FOS+/EGR-1+ double-positive nuclei fraction z-score” value came out at 0.127.

In the case of `COc1ccc2[nH]cc(/C=C3\C(=O)Nc4ccc(NC(=O)CCN5CCCCC5)cc43)c2c1`, in experiment [1], the nucleus area z-score was -0.782. Besides, the “total neurite length per nucleus (z-score)” value in experiment [2] is -0.00394. The same compound yielded a nucleus roundness z-score in experiment [3] of -0.359. For the same compound, the “KCl-induced FOS+/EGR-1+ double-positive nuclei fraction z-score” value in experiment [4] was -0.393.

For the compound `Nc1ncnc2c1c(-c1cnc3[nH]ccc3c1)nn2C1CCCC1`, the nucleus area z-score in experiment [1] is -5.23. In addition, the “total neurite length per nucleus (z-score)” value in experiment [2] is -1.48. Moreover, the nucleus roundness z-score in experiment [3] was -3.63. Moreover, the “KCl-induced FOS+/EGR-1+ double-positive nuclei fraction z-score” value in experiment [4] was -0.789.

For the compound `Cc1cccc(CN2CCN(C(c3ccccc3)c3ccc(Cl)cc3)CC2)c1` (stereo not drawn) [Meclizine 2HCl], in experiment [1], the nucleus area z-score was -8. In addition, the “total neurite length per nucleus (z-score)” value in experiment [2] was -3.7. The nucleus roundness z-score in experiment [3] is -6.24. For the same compound, the “KCl-induced FOS+/EGR-1+ double-positive nuclei fraction z-score” value in experiment [4] was -2.26.
